Laboratory results taken from patent US20250248376A1 (University of Texas, published 2025).
Results are given in words; binding and its absence hold for the method and conditions named. Binding calls can cover weak binding; strength is not graded here. For some assays here: In cells and extracts the contact can be indirect.

Key:
Contactin (mouse Cntn1) [1] = target: T1, Contactin (mouse Cntn1) (mouse, UniProt P12960 21-1001); assay: in vitro biochemical analysis, co-expression with Contactin in HEK cells (discussion)
T1 construct: whole, on cells; One entry covers both endogenous spinal cord Contactin and Contactin transfected into HEK cells; It was immunoprecipitated from lysates with anti-Contactin antibodies; also called Contactin/F3
T1 sequence (looked up): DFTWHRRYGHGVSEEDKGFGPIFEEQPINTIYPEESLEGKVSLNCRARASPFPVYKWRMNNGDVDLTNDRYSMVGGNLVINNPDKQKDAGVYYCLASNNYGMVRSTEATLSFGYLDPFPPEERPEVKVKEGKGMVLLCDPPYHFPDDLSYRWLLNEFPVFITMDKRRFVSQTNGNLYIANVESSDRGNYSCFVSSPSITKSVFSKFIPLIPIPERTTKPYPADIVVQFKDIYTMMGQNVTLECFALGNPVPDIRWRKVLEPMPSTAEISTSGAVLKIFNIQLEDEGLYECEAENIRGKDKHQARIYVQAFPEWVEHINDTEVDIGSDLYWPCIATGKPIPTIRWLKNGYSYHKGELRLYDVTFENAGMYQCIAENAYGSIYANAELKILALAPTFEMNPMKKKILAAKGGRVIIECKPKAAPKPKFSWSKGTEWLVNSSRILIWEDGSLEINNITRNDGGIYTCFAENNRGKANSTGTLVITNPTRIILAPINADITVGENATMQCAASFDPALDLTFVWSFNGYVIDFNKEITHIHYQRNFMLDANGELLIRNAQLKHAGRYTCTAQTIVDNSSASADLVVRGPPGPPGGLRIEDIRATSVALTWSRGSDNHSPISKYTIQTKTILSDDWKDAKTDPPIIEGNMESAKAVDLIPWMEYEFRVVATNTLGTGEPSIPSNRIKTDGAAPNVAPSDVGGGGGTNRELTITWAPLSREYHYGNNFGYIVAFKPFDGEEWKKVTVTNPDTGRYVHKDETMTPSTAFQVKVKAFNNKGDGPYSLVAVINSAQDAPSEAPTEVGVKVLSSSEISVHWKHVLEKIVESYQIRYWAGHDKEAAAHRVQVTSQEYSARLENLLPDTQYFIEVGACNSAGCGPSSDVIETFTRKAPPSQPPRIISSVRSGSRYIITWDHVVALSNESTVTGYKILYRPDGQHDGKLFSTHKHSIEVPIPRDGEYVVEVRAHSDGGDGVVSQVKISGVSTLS

Contactin (mouse Cntn1) [2] = target: T1, Contactin (mouse Cntn1); assay: co-IP with anti-Contactin antibodies from lysates of co-transfected HEK cells (FIG. 17J)

With “wild-type Cntnap1^Flag expressed in HEK cells from pCMV-Cntnap1^Flag (OriGene MR223061) (receptor)” as the substance, how does the binding (Contactin (mouse Cntn1) [1]) read?
Its binding is “binds”.

And the binding (Contactin (mouse Cntn1) [2])?
The binding was “binds”.
